Data source: PubChem BioAssay AID1259308 (NCATS, 2017)
This is one part, drawn at random, of about 59,000 deposited reagents. About 1,510 of them (2.6%) count as active. 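Calls use total luciferase alone and ignore viability, so some active siRNAs may act by altering cell number.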 The numbers tell different reagents against one gene apart. Further read-outs or replicates are left out here.

- Screen: 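Knock-downs that increase output of a recombinant reporter protein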 (primary screen)
- System: human HEK293 embryonic kidney cells stably expressing firefly luciferase (HEK-CMV-Luc2-Hygro)
- Knock-down reagent: single siRNA against human genes, 0.8 pmol siRNA per well
- Timing: 72 h
- Detection: 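Reporter luminescence and viable-cell signal on separate replicate plates, given as percent of non-targeting control and median/MAD z-scores, plus per-cell luciferase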
- Direction: total luciferase, z-score and total luciferase, % of control: higher = more reporter protein produced
- Hit rule: 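Active when the median/MAD z-score for overall luciferase is greater than 3; a gene was taken forward for validation with new siRNAs if at least two of its three siRNAs passed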
- Meaning of the calls: active = raised luciferase; inactive = no rise

The first 2 records, ahead of the listing:
LMOD2 #1 — total luciferase, z-score = 0.612; total luciferase, % of control = 94.1; Outcome = inactive
LMOD2 #2 — total luciferase, z-score = -0.866; total luciferase, % of control = 64.7; Outcome = inactive

Results, repeating the preview:
LMOD2 #1 — total luciferase, z-score = 0.612; total luciferase, % of control = 94.1; Outcome = inactive
LMOD2 #2 — total luciferase, z-score = -0.866; total luciferase, % of control = 64.7; Outcome = inactive
LMOD2 #3 — total luciferase, z-score = -1.25; total luciferase, % of control = 57.1; Outcome = inactive
P3H2 #1 — total luciferase, z-score = -1.1; total luciferase, % of control = 60; Outcome = inactive
P3H2 #2 — total luciferase, z-score = 0.112; total luciferase, % of control = 84.1; Outcome = inactive
P3H2 #3 — total luciferase, z-score = -0.159; total luciferase, % of control = 78.7; Outcome = inactive
PPP2R3B #1 — total luciferase, z-score = 3.8; total luciferase, % of control = 157; Outcome = active
PPP2R3B #2 — total luciferase, z-score = -0.918; total luciferase, % of control = 63.6; Outcome = inactive
PPP2R3B #3 — total luciferase, z-score = -0.839; total luciferase, % of control = 65.2; Outcome = inactive
RPS26P50 #1 — total luciferase, z-score = -2.71; total luciferase, % of control = 27.9; Outcome = inactive
RPS26P50 #2 — total luciferase, z-score = -2.94; total luciferase, % of control = 23.3; Outcome = inactive
RPS26P50 #3 — total luciferase, z-score = -3.76; total luciferase, % of control = 7.15; Outcome = inactive
